# Laboratory results: PubChem BioAssay AID504847 (National Center for Advancing Translational Sciences (NCATS), 2011)
# Sequences of proteins named here, by UniProt entry; tags and fusion partners are left off. A change or cut given only in a name is not applied to a line headed by its entry.
# UniProt P11473: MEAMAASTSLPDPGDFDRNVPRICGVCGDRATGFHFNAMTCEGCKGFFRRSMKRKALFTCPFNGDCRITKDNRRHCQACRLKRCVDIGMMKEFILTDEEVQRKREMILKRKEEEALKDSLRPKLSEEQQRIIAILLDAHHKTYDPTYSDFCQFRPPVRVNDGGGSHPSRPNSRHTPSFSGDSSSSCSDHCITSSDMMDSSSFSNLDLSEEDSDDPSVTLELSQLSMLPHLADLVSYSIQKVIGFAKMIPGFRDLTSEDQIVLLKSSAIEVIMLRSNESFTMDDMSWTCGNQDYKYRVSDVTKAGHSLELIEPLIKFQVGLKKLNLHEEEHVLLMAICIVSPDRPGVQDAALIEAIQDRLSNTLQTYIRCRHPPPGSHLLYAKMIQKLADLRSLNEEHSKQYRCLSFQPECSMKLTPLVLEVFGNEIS
# The campaign covered roughly 400,000 compounds. About 3,700 (0.93%) were called active. This list was built around the results that the source calls inconclusive (neither active nor inactive); the mix of calls is not that of the screen. Calls follow the shape of the dose curve; as a rule, active = well fitted inhibition curve with a large enough effect; inconclusive = small, poorly fitted or top-dose-only effect, or another doubt; inactive = no such curve, though single readings can be large or run the other way. A potency beside an inconclusive call is a rough fit, not a confirmed value.
# Biological target: Vitamin D3 receptor (Homo sapiens) (UniProt P11473)
# Assay: Inhibitors of the vitamin D receptor (VDR): qHTS
# Conditions: VDR-SRC2-3 peptide fluorescence polarization, 2 h; max response, negative = inhibition: stronger effect = lower value
# Method in brief: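 VDR–SRC2-3 interaction, FP format. Cmpds 23 nl via pintool, brief spin, 2 h ambient incubation.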
# % is scaled to controls: 0 for no effect and ±100 for the full control effect; potency is read from the fitted curve at half-maximal effect.
SMILES,Potency,"max response, negative = inhibition"
Cc1noc(/C=C/N(C)C)c1S(=O)(=O)N1CCCC(C(=O)NCCC2=CCCCC2)C1 (configuration not stated),"inconclusive: 15.8 µM [inhibitor, full curve]",–
O=C(NCCSSCCNC(=O)c1ccccc1)c1ccccc1,"inconclusive: 89.1 µM [inhibitor, partial curve, poor fit]",–
COc1ccc(/C=C(\NC(=O)c2ccco2)C(=O)N2CCCCC2)cc1,"inconclusive: 7.94 µM [inhibitor, partial curve]",–
CCC1NC(=O)C(NC(=O)c2ncccc2O)C(C)OC(=O)C(c2ccccc2)NC(=O)C2CC(=O)CCN2C(=O)C(Cc2ccccc2)N(C)C(=O)C2CCCN2C1=O (configuration not stated),"inconclusive: 50.1 µM [inhibitor, partial curve, poor fit]",–
CCc1ccc(NC(=O)C2CCN(S(=O)(=O)c3c(C)noc3/C=C/c3ccco3)CC2)cc1,"inconclusive: 89.1 µM [inhibitor, single point]",–
N#CC1(NC(=O)COC(=O)c2cc(O)c3ccccc3c2O)CCCCC1,active: 44.7 µM,–
N#Cc1ccccc1S(=O)(=O)N1CCN(C(=O)C2CCCCC2)CC1,"inconclusive: 22.4 µM [inhibitor, partial curve, poor fit]",–
O=C(CC(Nc1ccccc1Cl)C(=O)O)c1ccccc1 (configuration not stated),active: 25.1 µM,–
CC(C)CN1CC[C@@]2(CCCN(C(=O)c3cc(C(F)(F)F)cc(C(F)(F)F)c3)C2)C1,"inconclusive: 89.1 µM [inhibitor, single point]",–
COC(=O)N1C(C2CC2)=Cc2ccccc2C1CC(C)=O (configuration not stated),–,inactive: -8.97%
O=C(CSc1nc2cccnc2n1Cc1ccccc1)N1CCCC1,"inconclusive: 25.1 µM [inhibitor, single point]",–
Cc1ccc(CSc2ncc(Cl)c(C(=O)Oc3ccc(F)cc3)n2)cc1,–,inactive: 4.66%
Cc1cn(C2OC(COC(=O)c3ccccc3)C(OC(=O)c3ccccc3)C2OC(=O)c2ccccc2)c(=O)[nH]c1=O (configuration not stated),–,inactive: 4.81%
CCCCS(=O)(=O)c1oc(-c2ccc(F)cc2)nc1S(=O)(=O)c1ccccc1,"inconclusive: 14.1 µM [inhibitor, partial curve, poor fit]",–
CCCC1=C(C(=O)OCC)C(c2cccs2)C(C#N)=C(N)O1 (configuration not stated),"inconclusive: 70.8 µM [inhibitor, partial curve]",–
CCOc1ccc(NC(=O)CCN2C(=O)c3ccccc3C2=O)cc1,"inconclusive: 31.6 µM [inhibitor, partial curve, poor fit]",–
CCCc1cc(=O)[nH]c(SCC(=O)N2CCc3ccccc3C2)n1,"inconclusive: 100 µM [inhibitor, single point]",–

# Sorted by length of the SMILES (falling): some entries from above.
SMILES,Potency,"max response, negative = inhibition"
Cc1noc(/C=C/N(C)C)c1S(=O)(=O)N1CCCC(C(=O)NCCC2=CCCCC2)C1 (configuration not stated),"inconclusive: 15.8 µM [inhibitor, full curve]",–
CCCCS(=O)(=O)c1oc(-c2ccc(F)cc2)nc1S(=O)(=O)c1ccccc1,"inconclusive: 14.1 µM [inhibitor, partial curve, poor fit]",–
N#Cc1ccccc1S(=O)(=O)N1CCN(C(=O)C2CCCCC2)CC1,"inconclusive: 22.4 µM [inhibitor, partial curve, poor fit]",–
O=C(CSc1nc2cccnc2n1Cc1ccccc1)N1CCCC1,"inconclusive: 25.1 µM [inhibitor, single point]",–
O=C(CC(Nc1ccccc1Cl)C(=O)O)c1ccccc1 (configuration not stated),active: 25.1 µM,–
